Experiment [1] concerns the target Recombinant wild-type septin complex (His–Pnut)–Sep2–Sep1–Sep1–Sep2–(His–Pnut) (Drosophila melanogaster) (UniProt P40797+P54359+P42207). The experiment is described as follows: negative-stain electron microscopy of filament formation; recombinant septin complexes 40 ng/µl in GTPase buffer (25 mM HEPES-KOH pH 7.6, 2 mM MgCl2, 1 mM EGTA) with 50 mM KCl, with or without Orc6 (40 ng/µl) and 400 µM GTP, 2 hr at 22°; hexamers to filaments; both purified.

Sequences of proteins named here, by UniProt entry; tags and fusion partners are left off. A change or cut given only in a name is not applied to a line headed by its entry.
UniProt P40797: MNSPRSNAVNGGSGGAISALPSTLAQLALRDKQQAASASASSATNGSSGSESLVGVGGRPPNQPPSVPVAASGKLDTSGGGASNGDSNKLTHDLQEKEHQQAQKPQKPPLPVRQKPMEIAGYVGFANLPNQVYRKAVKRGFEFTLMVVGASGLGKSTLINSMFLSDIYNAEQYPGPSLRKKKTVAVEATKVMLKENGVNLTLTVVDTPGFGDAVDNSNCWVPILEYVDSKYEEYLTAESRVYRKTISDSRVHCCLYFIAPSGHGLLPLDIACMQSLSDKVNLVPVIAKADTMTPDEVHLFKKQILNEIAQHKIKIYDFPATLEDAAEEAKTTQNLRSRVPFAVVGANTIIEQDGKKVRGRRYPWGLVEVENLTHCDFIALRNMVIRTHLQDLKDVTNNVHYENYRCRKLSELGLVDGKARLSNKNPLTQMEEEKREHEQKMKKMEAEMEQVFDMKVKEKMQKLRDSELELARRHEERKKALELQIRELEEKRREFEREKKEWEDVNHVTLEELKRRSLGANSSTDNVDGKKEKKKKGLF
UniProt P54359: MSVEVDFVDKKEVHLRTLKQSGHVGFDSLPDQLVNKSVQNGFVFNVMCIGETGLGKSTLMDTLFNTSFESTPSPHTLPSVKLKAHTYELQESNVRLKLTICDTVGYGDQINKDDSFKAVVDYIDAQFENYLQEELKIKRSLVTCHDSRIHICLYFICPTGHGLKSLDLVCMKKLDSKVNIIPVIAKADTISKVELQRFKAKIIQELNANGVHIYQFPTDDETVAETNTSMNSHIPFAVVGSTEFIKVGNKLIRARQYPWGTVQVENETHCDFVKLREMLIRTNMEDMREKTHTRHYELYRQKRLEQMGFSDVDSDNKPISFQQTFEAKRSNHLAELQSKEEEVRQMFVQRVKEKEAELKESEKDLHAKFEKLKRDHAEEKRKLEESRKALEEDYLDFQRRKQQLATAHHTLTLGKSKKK
UniProt P42207: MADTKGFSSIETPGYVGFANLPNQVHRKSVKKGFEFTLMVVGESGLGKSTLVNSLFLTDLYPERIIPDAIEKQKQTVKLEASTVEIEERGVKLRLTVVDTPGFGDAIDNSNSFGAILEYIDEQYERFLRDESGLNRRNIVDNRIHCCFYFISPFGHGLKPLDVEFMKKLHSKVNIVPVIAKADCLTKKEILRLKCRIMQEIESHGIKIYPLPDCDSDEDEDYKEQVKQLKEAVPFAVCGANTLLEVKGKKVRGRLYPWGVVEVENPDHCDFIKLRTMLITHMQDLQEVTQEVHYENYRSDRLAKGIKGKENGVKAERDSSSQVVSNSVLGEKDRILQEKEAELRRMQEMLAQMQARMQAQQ

For experiment [2], the target named is Recombinant septin complex carrying Pnut-T509A/S517A, (His–Pnut)–Sep2–Sep1–Sep1–Sep2–(His–Pnut) (Drosophila melanogaster) (UniProt P40797+P54359+P42207). Described as above.
Experiment [3] concerns the target T1, Orc6 (endogenous, embryo extract) (Drosophila melanogaster (endogenous in embryos)) (UniProt Q9Y1B2).
T1 sequence: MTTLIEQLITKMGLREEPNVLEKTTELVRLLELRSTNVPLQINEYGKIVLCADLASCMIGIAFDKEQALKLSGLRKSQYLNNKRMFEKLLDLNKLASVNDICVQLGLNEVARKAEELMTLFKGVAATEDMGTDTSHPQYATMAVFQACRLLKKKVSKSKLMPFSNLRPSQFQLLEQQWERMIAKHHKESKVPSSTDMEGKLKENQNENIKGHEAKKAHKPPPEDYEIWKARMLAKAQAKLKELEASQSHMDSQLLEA
The experiment is described as follows: co-IP; antibodies against Orc6 used to precipitate Pnut from Drosophila embryo extracts (Figure S4 in File S1).

No constants are given. Whether binding was seen depends on the method and setting. For some of these results: In cells and extracts the contact can be indirect. Some results given as binding are weak or reduced against the parent protein; the word gives no strength.

With “Recombinant wild-type septin complex (His–Pnut)–Sep2–Sep1–Sep1–Sep2–(His–Pnut) (from UniProt P40797 1-539; P54359 1-419; P42207 1-361)”, the binding result in experiment [1] is given as “binds”.

For “Recombinant septin complex carrying Pnut-T509A/S517A, (His–Pnut)–Sep2–Sep1–Sep1–Sep2–(His–Pnut) (from UniProt P40797 1-539; P54359 1-419; P42207 1-361)”, in experiment [2], the binding result is recorded as “binds”.

“FLAG-tagged Pnut-T509A/S517A (FLAG-pnut-T509A/S517A transgene) (from UniProt P40797 1-539)”: in experiment [3], the binding result was “binds”.

For the substance “FLAG-tagged Pnut-T509E/S517E (FLAG-pnut-T509E/S517E transgene) (from UniProt P40797 1-539)”, the binding result in experiment [3] is on record as “binds”.

The values are drawn from article PMC5765355, “Phosphorylation of Pnut in the Early Stages of Drosophila Embryo Development Affects Association of the Septin Complex with the Membrane and Is Important for Viability” (G3: Genes|Genomes|Genetics, 2017).
